Results are given in words; binding and its absence hold for the method and conditions named. In cells and extracts the contact can be indirect. These calls come from enrichment with a bait or labelling near it, and not all partners need be listed.
Experiments:
Test in all cases: affinity purification with mass spectrometry; one-step StrepTactin affinity purification of the StHA-tagged bait from lysates of tetracycline-induced HEK293 cells (lysis buffer with 2 µM avidin), elution with 2.5 mM d-desthiobiotin, biological triplicates, filtered against the HASt-GFP control
RIOK1(kd)-StHA (human) = biological target: T1, RIOK1(kd)-StHA (human) (UniProt Q9BRS2)
T1 sequence: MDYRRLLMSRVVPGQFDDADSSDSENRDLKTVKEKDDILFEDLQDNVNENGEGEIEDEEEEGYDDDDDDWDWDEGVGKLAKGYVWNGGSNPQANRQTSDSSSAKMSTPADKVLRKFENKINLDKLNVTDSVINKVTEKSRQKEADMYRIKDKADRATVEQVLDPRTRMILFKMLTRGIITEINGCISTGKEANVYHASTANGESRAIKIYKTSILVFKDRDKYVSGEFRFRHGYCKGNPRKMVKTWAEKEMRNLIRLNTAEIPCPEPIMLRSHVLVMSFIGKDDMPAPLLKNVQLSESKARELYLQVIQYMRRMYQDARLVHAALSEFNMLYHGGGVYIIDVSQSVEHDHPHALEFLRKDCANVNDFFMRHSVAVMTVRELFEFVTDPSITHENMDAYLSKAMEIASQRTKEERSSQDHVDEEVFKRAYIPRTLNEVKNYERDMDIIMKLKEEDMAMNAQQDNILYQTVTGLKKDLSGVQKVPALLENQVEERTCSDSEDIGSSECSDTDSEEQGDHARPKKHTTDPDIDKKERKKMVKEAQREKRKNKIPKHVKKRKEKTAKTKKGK

By UniProt entry, the sequences of proteins in these tests, tags left out.
UniProt Q9NRX1: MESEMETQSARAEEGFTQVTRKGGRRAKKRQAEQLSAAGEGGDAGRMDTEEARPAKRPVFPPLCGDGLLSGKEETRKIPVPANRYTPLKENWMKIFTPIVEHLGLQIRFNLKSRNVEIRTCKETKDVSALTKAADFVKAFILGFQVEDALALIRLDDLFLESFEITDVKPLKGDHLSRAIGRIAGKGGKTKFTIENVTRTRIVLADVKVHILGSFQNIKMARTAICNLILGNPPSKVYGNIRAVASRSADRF
UniProt Q13283: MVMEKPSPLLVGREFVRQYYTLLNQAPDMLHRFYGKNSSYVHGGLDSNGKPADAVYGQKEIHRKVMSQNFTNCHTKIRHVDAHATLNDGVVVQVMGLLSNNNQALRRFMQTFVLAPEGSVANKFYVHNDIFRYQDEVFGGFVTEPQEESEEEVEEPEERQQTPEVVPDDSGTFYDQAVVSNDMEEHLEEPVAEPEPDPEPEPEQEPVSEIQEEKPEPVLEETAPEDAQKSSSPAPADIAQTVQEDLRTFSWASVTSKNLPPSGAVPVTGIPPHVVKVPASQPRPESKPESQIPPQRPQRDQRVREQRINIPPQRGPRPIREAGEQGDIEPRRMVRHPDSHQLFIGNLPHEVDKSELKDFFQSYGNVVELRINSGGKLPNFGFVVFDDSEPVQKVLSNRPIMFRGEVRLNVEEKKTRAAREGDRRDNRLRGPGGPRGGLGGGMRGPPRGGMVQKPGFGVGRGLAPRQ

USP16(WT)-StHA (human) = USP16(WT)-StHA (human) (UniProt Q9Y5T5)
[1] = biological target: USP16(C205S)-StHA (human) (UniProt Q9Y5T5)

| binding (RIOK1(kd)-StHA (human)) | binding (USP16(WT)-StHA (human)) | binding [1] | Substance |
| --- | --- | --- | --- |
| binds | binds | binds | DIM2 (from UniProt Q9NRX1 1-252) |
| binds | – | – | G3BP1 (from UniProt Q13283 1-466) |
| – | binds weakly | binds weakly | NOG2 (from UniProt Q13823 1-731) |
| binds | – | – | USP16 (from UniProt Q9Y5T5 1-823) (enzyme) |

Source: publication PMC7065907
